Test results reported in paper PMC5974482.

By UniProt entry, the sequences of proteins in these tests, tags left out.
UniProt A5YKK6: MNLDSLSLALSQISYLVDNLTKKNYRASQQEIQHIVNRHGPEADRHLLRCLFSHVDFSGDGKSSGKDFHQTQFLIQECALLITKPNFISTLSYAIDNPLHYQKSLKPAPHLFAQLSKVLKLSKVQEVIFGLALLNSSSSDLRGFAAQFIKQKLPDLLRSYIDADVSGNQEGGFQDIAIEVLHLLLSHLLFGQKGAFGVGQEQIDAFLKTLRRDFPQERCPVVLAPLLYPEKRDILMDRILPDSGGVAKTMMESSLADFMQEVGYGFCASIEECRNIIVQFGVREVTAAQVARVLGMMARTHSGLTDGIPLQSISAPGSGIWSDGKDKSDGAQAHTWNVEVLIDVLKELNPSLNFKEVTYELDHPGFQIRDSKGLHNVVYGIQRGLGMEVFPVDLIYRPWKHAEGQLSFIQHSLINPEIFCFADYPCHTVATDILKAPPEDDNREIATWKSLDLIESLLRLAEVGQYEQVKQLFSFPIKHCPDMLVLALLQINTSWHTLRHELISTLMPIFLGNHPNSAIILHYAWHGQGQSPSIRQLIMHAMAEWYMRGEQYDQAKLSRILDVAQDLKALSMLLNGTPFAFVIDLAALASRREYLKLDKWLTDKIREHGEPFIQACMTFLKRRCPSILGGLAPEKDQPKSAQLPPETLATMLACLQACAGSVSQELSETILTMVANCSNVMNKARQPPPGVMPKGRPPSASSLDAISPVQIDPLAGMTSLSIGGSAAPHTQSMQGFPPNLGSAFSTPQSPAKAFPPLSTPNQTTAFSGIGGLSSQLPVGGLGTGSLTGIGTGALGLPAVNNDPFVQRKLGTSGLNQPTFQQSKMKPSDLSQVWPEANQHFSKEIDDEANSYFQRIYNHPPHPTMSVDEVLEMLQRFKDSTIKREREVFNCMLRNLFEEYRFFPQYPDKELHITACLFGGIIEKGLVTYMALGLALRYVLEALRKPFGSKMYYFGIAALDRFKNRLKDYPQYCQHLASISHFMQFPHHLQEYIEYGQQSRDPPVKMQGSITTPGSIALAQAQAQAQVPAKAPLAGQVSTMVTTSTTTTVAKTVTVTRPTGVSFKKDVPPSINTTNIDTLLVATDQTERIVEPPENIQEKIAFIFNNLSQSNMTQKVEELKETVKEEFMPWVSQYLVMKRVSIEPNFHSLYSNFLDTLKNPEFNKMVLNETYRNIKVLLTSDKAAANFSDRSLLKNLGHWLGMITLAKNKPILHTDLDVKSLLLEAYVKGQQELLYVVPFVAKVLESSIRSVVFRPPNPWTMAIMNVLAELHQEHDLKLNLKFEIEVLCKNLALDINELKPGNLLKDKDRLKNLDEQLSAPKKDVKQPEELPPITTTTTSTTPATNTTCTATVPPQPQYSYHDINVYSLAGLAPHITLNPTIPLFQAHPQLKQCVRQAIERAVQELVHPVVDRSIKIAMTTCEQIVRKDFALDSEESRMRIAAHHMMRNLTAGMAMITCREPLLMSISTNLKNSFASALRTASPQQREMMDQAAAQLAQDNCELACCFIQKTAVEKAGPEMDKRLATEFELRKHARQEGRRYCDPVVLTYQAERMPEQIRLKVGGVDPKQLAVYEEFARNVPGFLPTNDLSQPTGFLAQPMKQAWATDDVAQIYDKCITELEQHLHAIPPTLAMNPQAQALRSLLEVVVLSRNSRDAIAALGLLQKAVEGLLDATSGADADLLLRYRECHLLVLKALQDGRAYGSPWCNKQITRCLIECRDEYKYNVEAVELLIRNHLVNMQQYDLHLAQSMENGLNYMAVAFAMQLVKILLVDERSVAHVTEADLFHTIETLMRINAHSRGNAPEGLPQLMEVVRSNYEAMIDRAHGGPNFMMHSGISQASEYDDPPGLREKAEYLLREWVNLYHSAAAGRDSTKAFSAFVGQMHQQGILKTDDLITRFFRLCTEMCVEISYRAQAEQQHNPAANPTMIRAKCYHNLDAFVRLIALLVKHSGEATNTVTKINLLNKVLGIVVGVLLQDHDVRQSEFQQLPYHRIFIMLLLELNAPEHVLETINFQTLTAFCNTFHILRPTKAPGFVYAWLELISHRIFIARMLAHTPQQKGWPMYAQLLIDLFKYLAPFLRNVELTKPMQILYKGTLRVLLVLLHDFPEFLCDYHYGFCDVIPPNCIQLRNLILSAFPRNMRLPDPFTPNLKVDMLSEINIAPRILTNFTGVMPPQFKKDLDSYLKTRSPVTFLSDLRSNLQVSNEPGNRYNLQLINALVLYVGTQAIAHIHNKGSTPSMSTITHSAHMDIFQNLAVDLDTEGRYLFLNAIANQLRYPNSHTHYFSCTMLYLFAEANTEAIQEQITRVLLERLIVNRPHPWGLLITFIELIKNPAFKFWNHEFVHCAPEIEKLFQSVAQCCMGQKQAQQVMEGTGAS
UniProt Q9NZN8: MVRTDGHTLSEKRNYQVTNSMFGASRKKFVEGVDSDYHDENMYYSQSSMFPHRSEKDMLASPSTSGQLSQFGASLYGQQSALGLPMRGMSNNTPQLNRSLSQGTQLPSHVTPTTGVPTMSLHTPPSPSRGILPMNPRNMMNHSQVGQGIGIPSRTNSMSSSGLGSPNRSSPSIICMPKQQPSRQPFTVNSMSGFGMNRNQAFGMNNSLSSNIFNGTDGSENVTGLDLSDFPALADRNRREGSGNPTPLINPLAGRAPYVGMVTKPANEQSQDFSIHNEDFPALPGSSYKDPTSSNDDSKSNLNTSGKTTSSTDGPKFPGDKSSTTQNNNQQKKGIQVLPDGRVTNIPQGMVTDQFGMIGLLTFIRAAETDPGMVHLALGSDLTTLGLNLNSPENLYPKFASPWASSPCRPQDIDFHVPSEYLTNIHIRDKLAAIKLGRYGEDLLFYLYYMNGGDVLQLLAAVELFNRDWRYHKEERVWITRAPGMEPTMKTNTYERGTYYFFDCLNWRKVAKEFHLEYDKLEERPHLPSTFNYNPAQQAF
UniProt O75175: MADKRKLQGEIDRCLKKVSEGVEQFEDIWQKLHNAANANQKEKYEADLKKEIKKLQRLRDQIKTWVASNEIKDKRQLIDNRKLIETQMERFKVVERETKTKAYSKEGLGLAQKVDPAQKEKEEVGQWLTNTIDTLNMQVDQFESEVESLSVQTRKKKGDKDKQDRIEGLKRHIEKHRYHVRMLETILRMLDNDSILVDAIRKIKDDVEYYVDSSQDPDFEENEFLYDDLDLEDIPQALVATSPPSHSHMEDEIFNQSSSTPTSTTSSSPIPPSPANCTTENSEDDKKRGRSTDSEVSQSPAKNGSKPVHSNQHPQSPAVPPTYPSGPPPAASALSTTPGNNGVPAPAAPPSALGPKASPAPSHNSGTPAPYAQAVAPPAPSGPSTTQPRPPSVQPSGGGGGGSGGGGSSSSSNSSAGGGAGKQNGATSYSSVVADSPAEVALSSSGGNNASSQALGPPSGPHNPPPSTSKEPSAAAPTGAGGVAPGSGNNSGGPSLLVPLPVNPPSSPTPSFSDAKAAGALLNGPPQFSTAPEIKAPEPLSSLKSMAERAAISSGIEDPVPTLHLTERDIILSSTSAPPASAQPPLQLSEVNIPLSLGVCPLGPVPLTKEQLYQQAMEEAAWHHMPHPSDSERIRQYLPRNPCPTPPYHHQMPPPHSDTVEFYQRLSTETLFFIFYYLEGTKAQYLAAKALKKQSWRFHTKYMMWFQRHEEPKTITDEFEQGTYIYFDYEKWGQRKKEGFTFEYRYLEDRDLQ
UniProt Q9UIV1: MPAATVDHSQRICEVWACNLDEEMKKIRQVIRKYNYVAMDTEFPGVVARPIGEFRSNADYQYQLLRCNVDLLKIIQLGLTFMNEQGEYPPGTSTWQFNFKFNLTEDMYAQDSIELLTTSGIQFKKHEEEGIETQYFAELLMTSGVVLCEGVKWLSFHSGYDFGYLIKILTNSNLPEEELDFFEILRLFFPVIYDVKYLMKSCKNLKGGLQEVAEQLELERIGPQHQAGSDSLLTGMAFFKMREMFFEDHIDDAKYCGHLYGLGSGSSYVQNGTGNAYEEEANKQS
UniProt Q9UFF9: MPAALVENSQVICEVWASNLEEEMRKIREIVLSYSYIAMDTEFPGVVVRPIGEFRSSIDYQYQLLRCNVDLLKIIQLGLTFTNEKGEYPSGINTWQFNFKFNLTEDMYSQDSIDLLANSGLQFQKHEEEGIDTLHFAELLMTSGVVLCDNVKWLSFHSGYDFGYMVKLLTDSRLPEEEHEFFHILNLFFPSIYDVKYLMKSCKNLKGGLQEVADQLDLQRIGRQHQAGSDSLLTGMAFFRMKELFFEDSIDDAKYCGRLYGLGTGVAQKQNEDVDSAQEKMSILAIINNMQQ
UniProt Q9H9A5: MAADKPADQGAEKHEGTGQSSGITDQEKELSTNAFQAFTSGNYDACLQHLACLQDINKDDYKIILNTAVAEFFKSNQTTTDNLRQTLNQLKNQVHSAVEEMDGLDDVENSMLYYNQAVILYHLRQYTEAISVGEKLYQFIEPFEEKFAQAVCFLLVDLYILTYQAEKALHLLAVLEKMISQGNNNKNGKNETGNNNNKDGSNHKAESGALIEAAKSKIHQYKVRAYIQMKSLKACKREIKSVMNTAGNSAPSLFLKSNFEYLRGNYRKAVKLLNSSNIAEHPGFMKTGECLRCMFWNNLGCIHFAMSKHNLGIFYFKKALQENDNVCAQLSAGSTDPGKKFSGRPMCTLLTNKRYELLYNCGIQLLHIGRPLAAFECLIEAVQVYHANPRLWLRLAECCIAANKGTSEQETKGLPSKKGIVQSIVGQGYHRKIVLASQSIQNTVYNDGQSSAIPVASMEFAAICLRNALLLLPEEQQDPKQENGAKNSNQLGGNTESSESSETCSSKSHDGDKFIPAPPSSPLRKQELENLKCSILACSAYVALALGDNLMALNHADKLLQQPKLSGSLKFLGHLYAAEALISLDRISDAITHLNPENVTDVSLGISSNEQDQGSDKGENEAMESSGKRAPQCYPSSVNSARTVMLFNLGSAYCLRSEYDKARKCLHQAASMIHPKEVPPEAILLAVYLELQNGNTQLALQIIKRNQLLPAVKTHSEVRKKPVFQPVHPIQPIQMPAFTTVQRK
UniProt Q92600: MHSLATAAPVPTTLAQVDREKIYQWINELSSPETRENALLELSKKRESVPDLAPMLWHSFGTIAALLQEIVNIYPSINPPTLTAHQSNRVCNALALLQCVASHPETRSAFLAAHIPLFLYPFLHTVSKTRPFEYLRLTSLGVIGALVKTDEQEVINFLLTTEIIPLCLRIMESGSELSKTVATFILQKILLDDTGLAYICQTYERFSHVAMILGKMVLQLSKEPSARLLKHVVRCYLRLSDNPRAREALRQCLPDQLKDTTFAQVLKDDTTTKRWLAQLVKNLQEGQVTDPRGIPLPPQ

T1: Tankyrase 1 binding protein 1 (TNKS1BP1, Tab182), endogenous (human (endogenous in Ad5E1HEK293, Ad12E1HER2, HeLa, HEK293FT)), Q9C0C2
T1 chain: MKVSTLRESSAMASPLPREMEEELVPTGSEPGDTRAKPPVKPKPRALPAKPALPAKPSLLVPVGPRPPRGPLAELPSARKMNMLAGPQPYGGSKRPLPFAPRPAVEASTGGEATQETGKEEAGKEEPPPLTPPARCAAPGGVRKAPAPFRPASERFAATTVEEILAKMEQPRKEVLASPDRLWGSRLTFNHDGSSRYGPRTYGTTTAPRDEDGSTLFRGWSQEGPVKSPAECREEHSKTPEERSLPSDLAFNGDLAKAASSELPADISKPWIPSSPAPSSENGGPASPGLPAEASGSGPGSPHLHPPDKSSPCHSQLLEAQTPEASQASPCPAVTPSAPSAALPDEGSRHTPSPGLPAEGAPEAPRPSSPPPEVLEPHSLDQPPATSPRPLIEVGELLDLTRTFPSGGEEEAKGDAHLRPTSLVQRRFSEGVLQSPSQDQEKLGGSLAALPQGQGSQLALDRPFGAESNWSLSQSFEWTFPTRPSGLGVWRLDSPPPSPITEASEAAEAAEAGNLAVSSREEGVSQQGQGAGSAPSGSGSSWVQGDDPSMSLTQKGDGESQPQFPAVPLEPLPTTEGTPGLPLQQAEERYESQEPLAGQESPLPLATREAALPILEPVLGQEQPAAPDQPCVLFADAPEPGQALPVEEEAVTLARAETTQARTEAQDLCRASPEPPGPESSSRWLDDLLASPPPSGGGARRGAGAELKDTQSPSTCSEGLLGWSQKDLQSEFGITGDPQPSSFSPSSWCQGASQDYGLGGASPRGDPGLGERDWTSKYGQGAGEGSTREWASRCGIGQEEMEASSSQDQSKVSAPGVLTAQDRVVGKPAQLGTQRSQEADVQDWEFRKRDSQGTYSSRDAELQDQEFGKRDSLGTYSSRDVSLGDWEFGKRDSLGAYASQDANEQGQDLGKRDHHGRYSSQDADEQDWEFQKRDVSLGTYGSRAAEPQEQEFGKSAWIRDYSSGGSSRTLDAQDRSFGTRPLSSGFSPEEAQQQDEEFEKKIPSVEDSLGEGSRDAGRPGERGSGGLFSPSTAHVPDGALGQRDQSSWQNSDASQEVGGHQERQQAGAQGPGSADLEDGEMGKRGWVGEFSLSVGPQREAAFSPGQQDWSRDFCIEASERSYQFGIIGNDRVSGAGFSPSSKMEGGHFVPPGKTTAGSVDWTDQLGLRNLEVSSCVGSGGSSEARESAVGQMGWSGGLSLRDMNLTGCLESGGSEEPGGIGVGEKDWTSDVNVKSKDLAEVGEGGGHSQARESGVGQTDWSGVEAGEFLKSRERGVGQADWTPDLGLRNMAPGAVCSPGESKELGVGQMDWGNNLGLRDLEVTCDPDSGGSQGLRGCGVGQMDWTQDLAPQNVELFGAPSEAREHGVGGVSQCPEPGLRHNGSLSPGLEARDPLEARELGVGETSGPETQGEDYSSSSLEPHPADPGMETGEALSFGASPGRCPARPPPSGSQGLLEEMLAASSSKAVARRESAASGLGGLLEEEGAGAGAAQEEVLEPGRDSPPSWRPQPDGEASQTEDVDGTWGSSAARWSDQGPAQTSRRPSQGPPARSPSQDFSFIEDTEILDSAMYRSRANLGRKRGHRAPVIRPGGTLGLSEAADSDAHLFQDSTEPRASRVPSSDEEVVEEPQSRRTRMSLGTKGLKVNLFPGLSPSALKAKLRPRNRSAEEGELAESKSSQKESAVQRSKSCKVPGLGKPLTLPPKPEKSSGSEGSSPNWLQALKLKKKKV


Target: Tankyrase 1 binding protein 1 (TNKS1BP1, Tab182), endogenous (human (endogenous in Ad5E1HEK293, Ad12E1HER2, HeLa, HEK293FT)) (UniProt Q9C0C2)
Assay: affinity purification with mass spectrometry
Conditions: not given

Molecule | binding
CNOT1 (from UniProt A5YKK6 1-2376) | binds
CNOT2 (from UniProt Q9NZN8 1-540) | binds
CNOT3 (from UniProt O75175 1-753) | binds
CNOT7 (from UniProt Q9UIV1 1-285) | binds
CNOT8 (from UniProt Q9UFF9 1-292) | binds
CNOT10 (from UniProt Q9H9A5 1-744) | binds
RCD1 (CNOT9) (from UniProt Q92600 1-299) | binds
FHL2 (protein, UniProt Q14192 1-279) MTERFDCHHCNESLFGKKYILREESPYCVVCFETLFANTCEECGKPIGCDCKDLSYKDRHWHEACFHCSQCRNSLVDKPFAAKEDQLLCTDCYSNEYSSKCQECKKTIMPGTRKMEYKGSSWHETCFICHRCQQPIGTKSFIPKDNQNFCVPCYEKQHAMQCVQCKKPITTGGVTYREQPWHKECFVCTACRKQLSGQRFTARDDFAYCLNCFCDLYAKKCAGCTNPISGLGGTKYISFEERQWHNDCFNCKKCSLSLVGRGFLTERDDILCPDCGKDI | binds

Target: T1, Tankyrase 1 binding protein 1 …
Assay: affinity purification with mass spectrometry
Conditions: remark: other sources report otherwise

Molecule | binding
CNOT4, O95628 1-575 (protein) MSRSPDAKEDPVECPLCMEPLEIDDINFFPCTCGYQICRFCWHRIRTDENGLCPACRKPYPEDPAVYKPLSQEELQRIKNEKKQKQNERKQKISENRKHLASVRVVQKNLVFVVGLSQRLADPEVLKRPEYFGKFGKIHKVVINNSTSYAGSQGPSASAYVTYIRSEDALRAIQCVNNVVVDGRTLKASLGTTKYCSYFLKNMQCPKPDCMYLHELGDEAASFTKEEMQAGKHQEYEQKLLQELYKLNPNFLQLSTGSVDKNKNKVTPLQRYDTPIDKPSDSLSIGNGDNSQQISNSDTPSPPPGLSKSNPVIPISSSNHSARSPFEGAVTESQSLFSDNFRHPNPIPSGLPPFPSSPQTSSDWPTAPEPQSLFTSETIPVSSSTDWQAAFGFGSSKQPEDDLGFDPFDVTRKALADLIEKELSVQDQPSLSPTSLQNSSSHTTTAKGPGSGFLHPAAATNANSLNSTFSVLPQRFPQFQQHRAVYNSFSFPGQAARYPWMAFPRNSIMHLNHTANPTSNSNFLDLNLPPQHNTGLGGIPVAGEEEVKVSTMPLSTSSHSLQQGQQPTSLHTTVA | no binding

Results are given in words; binding and its absence hold for the method and conditions named. Binding seen in cells or lysates may run through a third protein. These calls come from enrichment with a bait or labelling near it, and not all partners need be listed. For part of these data: No binding means not detected with the bait.
